Drawing on the supplement of paper PMC12578635, this text covers intracellular bacterial bioluminescence for 92 molecules.

Each structure is given as a SMILES string. The list shows a part of the results. No stated cut-off is given here; in the data, active = 150% or more and inactive = the rest. Most values come without repeats; read them as rough.

The test system of this test is Staphylococcus aureus JE2-lux inside RAW 264.7 macrophages. The experiment in a line: intracellular bacterial bioluminescence relative to DMSO vehicle; higher = higher intracellular bacterial metabolic activity. The conditions noted are these: 10 µM; treatment time 4 h; gentamicin 50 µg/ml.
`COc1ccc(C(=O)/C=C2\C(=O)Nc3ccccc32)cc1`: the intracellular bacterial bioluminescence is inactive: 33%.

As for `Cc1oc2c(c1C(=O)O)C(=O)c1ccccc1C2=O`, the intracellular bacterial bioluminescence is inactive: 76%.

With `CCOC(=O)C(C)Sc1ncnc2c1nnn2Cc1ccc(F)cc1` (configuration not stated), the intracellular bacterial bioluminescence is inactive: 48.3%.

`COc1cccc(NC(=O)N2CCC(NC(=O)c3ccc(F)cc3)CC2)c1`: the intracellular bacterial bioluminescence is inactive: 77.7%.

`Cc1ccccc1-c1nc(Cn2c(=O)c3cccnc3n(-c3ccccc3)c2=O)c(C)o1`: the intracellular bacterial bioluminescence is inactive: 95.5%.

Consider `Cn1c(NC(=O)COc2ccccc2)cc(=O)n(C)c1=O`, for which the intracellular bacterial bioluminescence is inactive: 129%.

As for `O=C1NC2=C(C(=O)N(Cc3ccc(F)cc3)C2)C(c2ccc([N+](=O)[O-])cc2)N1` (configuration not stated), the intracellular bacterial bioluminescence is inactive: 12.1%.

Turning to `NC(=O)C1CCN(C(=O)NCc2noc3ccccc23)CC1`, the intracellular bacterial bioluminescence was inactive: 127%.

`COC(=O)C1=C(C)Nc2nc(SCc3ccccc3)[nH]c(=O)c2C1c1cccc(F)c1` (configuration not stated): the intracellular bacterial bioluminescence was inactive: 90%.

Consider `Cn1c(=O)[nH]c(=O)c2c1nc(SCc1ccccc1Cl)n2CCc1ccccc1`, for which the intracellular bacterial bioluminescence is inactive: 83.9%.

Regarding `COc1ccc(C(=O)N2CCOC2CNC(=O)C(=O)NCc2ccccc2)cc1` (configuration not stated), the intracellular bacterial bioluminescence is inactive: 76.4%.

Take `COc1cc(/C=C\C(=O)NCCc2cc3cc(C)c(C)cc3[nH]c2=O)cc(OC)c1OC`: the intracellular bacterial bioluminescence is inactive: 90.1%.

With `CC(=O)N(C(C)=O)c1ncnc2sc3c(c12)CCCC3`, the intracellular bacterial bioluminescence was inactive: 90.2%.

Consider `Cc1ccc(NC(=S)NCCCNc2nc3cc4c(cc3cc2C#N)OCO4)c(C)c1`, for which the intracellular bacterial bioluminescence was inactive: 111%.

Consider `COc1ccc(NC(=O)N2CCC(n3cnc4cc(C(F)(F)F)ccc43)CC2)cc1`, for which the intracellular bacterial bioluminescence was inactive: 41%.

As to `CC(=O)N1CCCc2ccc(NC(=O)C(=O)NCc3cccnc3)cc21`, the intracellular bacterial bioluminescence is inactive: 108%.

With `CCc1nc(NCc2ccc(OC)cc2OC)c2onc(-c3ccccc3)c2n1`, the intracellular bacterial bioluminescence is inactive: 46.6%.

As for `Cc1ccnc(SCc2cc(=O)c(OC(=O)COc3ccc(F)cc3)co2)n1`, the intracellular bacterial bioluminescence is inactive: 113%.

In the case of `CCOCCn1c(SCc2c(F)cccc2Cl)nc2c1c(=O)[nH]c(=O)n2C`, the intracellular bacterial bioluminescence was inactive: 106%.

As for `Cc1ccc(NC2CC(=O)N(CCc3ccccc3)C2=O)cc1` (configuration not stated), the intracellular bacterial bioluminescence was inactive: 71.1%.

As for `COC(=O)c1ccc(CSc2ncnc3ccccc23)o1`, the intracellular bacterial bioluminescence was inactive: 66.1%.

As for `CCC(Sc1ccc2nnc(-c3cccnc3)n2n1)C(=O)O` (configuration not stated), the intracellular bacterial bioluminescence was inactive: 94.3%.

As to `O=C(N/N=C\c1ccco1)c1cc([N+](=O)[O-])cc([N+](=O)[O-])c1`, the intracellular bacterial bioluminescence was inactive: 87.7%.

Take `Cc1nn(-c2ccc(-c3noc(C4CC4)n3)cc2)cc1C(=O)N1CCn2c1nc1ccccc12`: the intracellular bacterial bioluminescence is inactive: 114%.

On to `COc1cc([N+](=O)[O-])cc2sc(NC(=O)CSc3ccc(Cl)cc3)nc12`, for which the intracellular bacterial bioluminescence was inactive: 100%.

In the case of `Cc1nn(C(=O)c2cccnc2)c(C)c1Sc1ccccc1[N+](=O)[O-]`, the intracellular bacterial bioluminescence is inactive: 119%.

For the molecule `COc1cc(NC(=O)C2(C)CCCO2)ccc1NC(=O)CN1CCOCC1` (configuration not stated), the intracellular bacterial bioluminescence is inactive: 108%.

`Cc1cc(-c2cn[nH]c2C2CCN(C(=O)c3ccncc3)CC2)on1`: the intracellular bacterial bioluminescence was inactive: 86.6%.

`O=C(NC1CCCc2ccccc21)c1cc2n(n1)CCCN(Cc1ccccc1)C2=O` (configuration not stated): the intracellular bacterial bioluminescence was inactive: 113%.

On to `O=C(COc1ccccc1)Nc1cc(=O)[nH]c(=O)[nH]1`, for which the intracellular bacterial bioluminescence is inactive: 106%.

For the molecule `O=C(c1ccco1)N1CCN(c2cc(=O)n(Cc3ccc(F)cc3)c(=O)[nH]2)CC1`, the intracellular bacterial bioluminescence is inactive: 97.5%.

`Cn1c(=O)[nH]c(=O)c2c1nc(Br)n2Cc1ccc(F)cc1`: the intracellular bacterial bioluminescence was inactive: 108%.

For the molecule `O=C(CCn1c(=S)[nH]c2cc3c(cc2c1=O)OCO3)NCCc1ccc(Cl)cc1`, the intracellular bacterial bioluminescence was inactive: 82.2%.

For the molecule `Cc1ccc(C(c2sc3ncnn3c2O)N2CCOCC2)cc1` (configuration not stated), the intracellular bacterial bioluminescence was inactive: 94.5%.

For the molecule `CC1=C(C(=O)OCc2ccccc2)C(c2cccs2)C(C#N)=C(N)O1` (configuration not stated), the intracellular bacterial bioluminescence was inactive: 114%.

Regarding `C=CCOc1ccccc1NC(=O)Cn1c(=O)oc2cc(Cl)ccc21`, the intracellular bacterial bioluminescence is inactive: 89.7%.

With `COc1ccc(NC(=O)CSc2ncnc3ccccc23)cc1OC`, the intracellular bacterial bioluminescence was inactive: 20.6%.

For `CCOC(=O)c1cccc(NC(=O)CCCc2nc3cccnc3n2Cc2ccc(C)cc2)c1`, the intracellular bacterial bioluminescence was inactive: 63.6%.

As to `COc1ccc(CNC(=O)CSc2nc3ccc(C(C)C)cc3cc2C#N)cc1`, the intracellular bacterial bioluminescence is inactive: 93.4%.

Turning to `CCc1nnc2ccc(C(=O)N3CCN(CC)CC3)cn12`, the intracellular bacterial bioluminescence was inactive: 124%.

`CCn1c(=O)[nH]c2cc(-c3noc(COc4cccc(C)c4)n3)ccc21`: the intracellular bacterial bioluminescence was inactive: 16.7%.

`CCCC(=O)N1CCN(c2c(C)n(C)c(=O)n(C)c2=O)CC1`: the intracellular bacterial bioluminescence is inactive: 86.8%.

`Cc1ccc(S(=O)(=O)Nc2ccc(N3CCn4c(nc5ccccc54)C3)cc2C)cc1`: the intracellular bacterial bioluminescence was inactive: 33%.

As to `Cn1c(=O)c2c(ncn2CC(=O)c2ccc([N+](=O)[O-])cc2)n(C)c1=O`, the intracellular bacterial bioluminescence is inactive: 103%.

As for `N#Cc1c(NC(=O)c2ccc(C(=O)Nc3sc4c(c3C#N)CCCC4)s2)sc2c1CCCC2`, the intracellular bacterial bioluminescence is inactive: 118%.

Turning to `c1ccc(-c2oc3ncnc(N4CCN(Cc5ccc6c(c5)OCO6)CC4)c3c2-c2ccccc2)cc1`, the intracellular bacterial bioluminescence was inactive: 110%.

As to `Cn1c(=O)c(-c2noc(C(=O)N3CCC(N4CCCCC4)CC3)n2)nn(-c2ccc(F)cc2)c1=O`, the intracellular bacterial bioluminescence is inactive: 86.6%.

For the molecule `Cc1ccc(C)c(COc2coc(CSc3nncn3C)cc2=O)c1`, the intracellular bacterial bioluminescence was inactive: 93.8%.

With `O=C(CSCc1ccccc1)Nc1nc2c(s1)COc1ccccc1-2`, the intracellular bacterial bioluminescence is inactive: 52.9%.

As to `Cc1ccc(NCc2nc3c([nH]2)c(=O)n(C)c(=O)n3C)cc1`, the intracellular bacterial bioluminescence is inactive: 102%.

As for `COc1ccc(NC(=O)c2ncoc2-c2ccc(OC)c(OC)c2)c(OC)n1`, the intracellular bacterial bioluminescence is inactive: 96%.

For `CN(C)S(=O)(=O)c1ccc(C(=O)NNC(=O)c2ccc3c(c2)CCCC3)cc1`, the intracellular bacterial bioluminescence was inactive: 83.5%.

With `O=C(NCC1COc2ccccc2O1)C(=O)c1cn(CC(=O)N2CCCCC2)c2ccccc12` (configuration not stated), the intracellular bacterial bioluminescence was inactive: 94.9%.

As for `Clc1ccccc1-n1cc(-c2ccccc2)c2c(N3CCCCC3)ncnc21`, the intracellular bacterial bioluminescence was inactive: 72.3%.

As to `Cc1ccc(-n2nnc(C(=O)NCc3ccc(Cl)cc3)c2-n2cccc2)cc1`, the intracellular bacterial bioluminescence is inactive: 93.9%.

On to `CS(=O)(=O)Nc1nc2ccc(NC(=O)c3n[nH]c4c3CCCC4)cc2s1`, for which the intracellular bacterial bioluminescence was inactive: 95.5%.

Take `Cc1ccc(/C=C2\SC(=S)N(NC(=O)c3ccccc3Br)C2=O)o1`: the intracellular bacterial bioluminescence is inactive: 95.2%.

Regarding `COc1ccc(-c2cccc(NS(=O)(=O)c3cccc([N+](=O)[O-])c3)c2)nn1`, the intracellular bacterial bioluminescence was inactive: 69%.

With `COc1cccc(C(c2sc3ncnn3c2O)N2CC(C)CC(C)C2)c1` (configuration not stated), the intracellular bacterial bioluminescence is inactive: 109%.

As to `CC(C(=O)NCCn1nc(-c2cccs2)oc1=O)c1ccccc1` (configuration not stated), the intracellular bacterial bioluminescence was inactive: 98.4%.

Regarding `C=CCOc1ccccc1NC(=O)Cn1cnc2sc(C)cc2c1=O`, the intracellular bacterial bioluminescence is inactive: 20.4%.

For the molecule `O=C(Nn1cnc2c(cnn2-c2ccccc2)c1=O)c1cc2ccccc2o1`, the intracellular bacterial bioluminescence was inactive: 126%.

Turning to `CCCc1cc(=O)[nH]c2nnc(SCC(=O)Nc3nc4ccccc4s3)n12`, the intracellular bacterial bioluminescence is inactive: 99.9%.

For the molecule `CN1CCCc2cc(C(CNC(=O)c3ccc4c(c3)OCO4)N3CCCCC3)ccc21` (configuration not stated), the intracellular bacterial bioluminescence was inactive: 141%.

Take `N#C/C(=C\c1c(Oc2ccccc2F)nc2ccccn2c1=O)C(N)=O`: the intracellular bacterial bioluminescence was inactive: 103%.

Take `O=C(c1cc(-c2ccc3c(c2)OCCO3)on1)N(c1ccccc1)c1ccccc1`: the intracellular bacterial bioluminescence was inactive: 34.4%.

As for `O=C(CSc1nnc(-c2cccnc2)n1-n1cccc1)Nc1ccc(Cl)c(C(F)(F)F)c1`, the intracellular bacterial bioluminescence was inactive: 18.8%.

As for `Cc1cccc(-n2c(SCC(=O)NNC(=O)c3ccco3)nnc2-c2cccnc2)c1C`, the intracellular bacterial bioluminescence is inactive: 82.7%.

For `Cc1nnc(SCC(=O)NCc2ccc3c(c2)OCO3)s1`, the intracellular bacterial bioluminescence is inactive: 124%.

With `Cc1ccc(NC(=S)N2CCC(NC(=O)c3cccc(F)c3)CC2)cc1C`, the intracellular bacterial bioluminescence was inactive: 72.8%.

Regarding `CN1CCc2c(sc(NC(=O)c3cc4cc([NH+]([O-])O)ccc4s3)c2C(N)=O)C1` (configuration not stated), the intracellular bacterial bioluminescence is inactive: 56.1%.

Consider `CCOC(=O)c1cc(C)nc2c1c(=O)n(CC(=O)Nc1c(C)cccc1CC)c(=O)n2C`, for which the intracellular bacterial bioluminescence was inactive: 65.5%.

As to `CCOc1ccnc2c1c(=O)n(Cc1cccnc1)c(=O)n2C`, the intracellular bacterial bioluminescence was inactive: 97.1%.

As for `CCOc1ccc(-c2cc(C(=O)Oc3cccc(Br)c3)no2)cc1`, the intracellular bacterial bioluminescence was inactive: 123%.

In the case of `CN(C)CCn1c(=O)c2cnc(-c3ccncc3)nc2n(C)c1=O`, the intracellular bacterial bioluminescence was inactive: 87.2%.

Regarding `CCN1C(=O)/C(=C2\SC(=S)NC2=O)c2cc(Br)ccc21`, the intracellular bacterial bioluminescence was inactive: 95.6%.

As for `N#Cc1ccc(CSc2cnc3ccccc3n2)cc1`, the intracellular bacterial bioluminescence is inactive: 63.1%.

Consider `CCOc1ccc(C2CC(=O)Nc3c2cnn3-c2ccc3nncn3n2)cc1OC` (configuration not stated), for which the intracellular bacterial bioluminescence was inactive: 99%.

For `Cc1cccc(NC(=O)CN2CCC3(CC2)NC(=O)c2ccccc2O3)n1`, the intracellular bacterial bioluminescence was inactive: 27.1%.

For `O=C(CN1CCc2nc(N3CCCC3)[nH]c(=O)c2C1)Nc1cccc(F)c1`, the intracellular bacterial bioluminescence was inactive: 102%.

With `COc1ccc(CC(=O)NCCc2cn3ccc(C)cc3n2)cc1`, the intracellular bacterial bioluminescence is inactive: 101%.

Consider `Cn1c(Sc2ccc3ccccc3n2)nc2c1c(=O)[nH]c(=O)n2C`, for which the intracellular bacterial bioluminescence was inactive: 85.2%.

For `CCOC(=O)c1ccc(-n2cc(O)c(C(=O)OC)n2)cc1`, the intracellular bacterial bioluminescence was inactive: 114%.

For `CC1CCN(C(=O)CSc2ccc3nnc(-c4cccc(F)c4)n3n2)CC1`, the intracellular bacterial bioluminescence was inactive: 120%.

Consider `C=CCc1cccc2cc(C(N)=O)/c(=N\c3ccc(OC)cc3)oc12`, for which the intracellular bacterial bioluminescence was inactive: 108%.

Regarding `O=C(CSc1nnc2c(n1)[nH]c1ccc(Br)cc12)NCc1ccccc1`, the intracellular bacterial bioluminescence is inactive: 99.3%.

As for `COc1cccc(N(C(=O)c2cccs2)C(C(=O)NC2CCCCC2)c2ccc3ncccc3c2)c1` (configuration not stated), the intracellular bacterial bioluminescence was inactive: 87.9%.

In the case of `CCOc1ccc(-c2nc(SCC(=O)NCCC(C)C)n3[nH]c(=O)cc3n2)cc1`, the intracellular bacterial bioluminescence is inactive: 104%.

Turning to `Cc1ccc(CN2CCC(CNC(=O)c3cn[nH]c3C3CCNCC3)CC2)cc1`, the intracellular bacterial bioluminescence was inactive: 98.3%.

As for `CCc1cccc(CC)c1NC(=O)c1cncc(Br)c1`, the intracellular bacterial bioluminescence was inactive: 93.1%.

For the molecule `O=C(CSc1nc2[nH]ncc2c(=O)n1-c1ccccc1Br)NCc1ccco1`, the intracellular bacterial bioluminescence was inactive: 109%.

For `CC1=NNC(=O)/C1=N\Nc1ccc(S(=O)(=O)Nc2nc(C)cc(C)n2)cc1`, the intracellular bacterial bioluminescence is inactive: 88.7%.
